Laboratory results from PubChem BioAssay AID540276 (National Center for Advancing Translational Sciences (NCATS), 2011).
The whole screen tested about 300,000 compounds, of which about 5,400 (1.8%) were called active. The inconclusive results got no clear call from the source; some entries with a clear call stand among them for comparison. Calls come from the whole dose curve; tested in HEK293 cells. Potencies beside an inconclusive call are fits to weak or partial responses and may not hold up.

Assay: qHTS for inhibitors of binding or entry into cells for Marburg Virus
Details: Marburg virus pseudotyped entry inhibition, cell reporter; activity change, negative = inhibition: at 37.8 µM (top of the series) unless noted
% is set by controls: 0 for no effect and ±100 for the full control effect; potency is the fitted concentration of half-maximal effect.

Structure (SMILES)	Potency	activity change, negative = inhibition
CN(C)C(=O)NC1C=CS(=O)(=O)C1 (stereo not drawn)	inconclusive: 31.6 µM [activator, single point]	–
Cc1ccc(-n2c(O)c(C=NCCC3=CCCCC3)c(=O)[nH]c2=O)cc1	inconclusive: 1.41 µM [inhibitor, partial curve, poor fit]	–
CNCCCNC(=O)c1ccc(/C=N/O)nc1	inconclusive: 35.5 µM [activator, single point]	–
CCOC(C(=O)OCCC[N+](C)(CC)CC)(c1ccccc1)c1ccccc1	–	inactive: -8.25%
COc1ccc(-c2noc(CNC(=O)c3ccc4c(c3)OCO4)n2)cc1	–	inactive: -3.14% [at 46.1 µM]
CCC(C)CN1C(=O)NC(CCc2ccccc2)C(C(C)=O)=C1C (stereo not drawn)	–	inactive: -18.2% [at 14.2 µM]
O=C(Cc1ccccc1)c1ccc(Cl)cc1	inconclusive: 8.91 µM [activator, partial curve, poor fit]	–
O=C(NCCCN1CCOCC1)Nc1ccc(Cc2ccc(NC(=O)NCCCN3CCOCC3)cc2)cc1	inconclusive: 0.398 µM [activator, partial curve, poor fit]	–
Cc1ccc(/C(O)=C/c2nc3ccccc3oc2=O)cc1	inconclusive: 0.562 µM [activator, full curve, poor fit]	–
CCOc1ccc(CCNC(=O)CN2CCN(Cc3ccccc3F)C2=O)cc1OCC	inconclusive: 9.2 µM [inhibitor, partial curve]	–
Cc1ccc(C)c(OCC(=O)NC2CCCCCC2)c1	inconclusive: 35.5 µM [inhibitor, partial curve, poor fit]	–
O=C(Nc1cccc(-c2ccc(N3CCCCC3)nn2)c1)c1ccco1	inconclusive: 14.1 µM [inhibitor, single point]	–
C/C(=N/N1CCN(c2ccccn2)CC1)c1cccc([N+](=O)[O-])c1	–	inactive: 10.8%
Cc1ccnc(NC(=O)Cn2cc([N+](=O)[O-])cn2)c1	inconclusive: 3.55 µM [activator, partial curve, poor fit]	–
CC(=Nc1ccc(F)cc1)c1c(O)n(C)c(=O)[nH]c1=O	inconclusive: 0.708 µM [inhibitor, partial curve, poor fit]	–
O=C(CCC(=O)N1CCOCC1)NCCc1ccccc1	inconclusive: 7.08 µM [activator, partial curve, poor fit]	–
C=CCN1C(=S)N=NC1c1ccccc1 (stereo not drawn)	–	inactive: 7.99%
Clc1ccc2[nH]c3c(NCCN4CCOCC4)ncnc3c2c1	inactive	–
CCN(CC(=O)O)S(=O)(=O)c1cc(Cl)ccc1Cl	inconclusive: 6.31 µM [inhibitor, single point]	–
CCn1c(=NC(=O)CCS(=O)(=O)c2ccccc2)sc2cccc(OC)c21	inconclusive: 1.78 µM [inhibitor, partial curve, poor fit]	–
N#Cc1c[nH]n2c(NC3CCCC3)c(-c3ccc(Cl)cc3)nc12	active: 1.41 µM	–
FC(F)(F)c1cnc(-c2cnc(-c3ccccn3)nc2)c(Cl)c1	inconclusive: 35.5 µM [inhibitor, single point]	–

Structure (SMILES)	Potency	activity change, negative = inhibition
Cc1cc(N/C(=N/S(=O)(=O)c2cc(F)ccc2F)c2ccccc2)n(-c2ccccc2)n1	–	inactive: -19.2%
COc1ccc(/C=N/NC(=O)c2nc(-c3ccccc3)n(-c3ccccc3)n2)c(O)c1	inconclusive: 5.01 µM [inhibitor, full curve, poor fit]	–
COc1cccc(OCC(=O)Nc2ccccc2-c2ccccc2)c1	inconclusive: 35.5 µM [inhibitor, single point]	–
Cc1cc(C)nc(/N=C(\N)Nc2ccc3c(c2)OCCO3)n1	inconclusive: 7.3 µM [inhibitor, partial curve]	–
COc1cccc(NC(=O)c2ccccc2NS(C)(=O)=O)c1	inconclusive: 29.1 µM [activator, single point]	–
Cc1ccc2nc(Cn3cc(C(F)(F)F)cc(Cl)c3=O)cc(=O)n2c1	inconclusive: 31.6 µM [activator, single point]	–
CC1CCCCN1C(=O)Cn1cnc2cc([N+](=O)[O-])ccc2c1=O (stereo not drawn)	inconclusive: 14.1 µM [activator, single point]	–
Cc1nc(N2CCC(C)CC2)c2c(C)c(C(=O)Nc3ccc(C(F)(F)F)cc3)sc2n1	inconclusive: 15.8 µM [inhibitor, single point]	–
Cc1cc(NC[C@@H]2CCCO2)n2c(nc3ccccc32)c1C#N	–	inactive: 1.22% [at 46.1 µM]
COc1cccc(NC(=S)N2CCN(C(c3ccccc3)c3ccccc3)CC2)c1	inconclusive: 29.1 µM [inhibitor, single point]	–
COc1ccc(CNC(=O)C2CC(C)=C(C)CC2C(=O)O)cc1OC (stereo not drawn)	inconclusive: 2.82 µM [inhibitor, partial curve, poor fit]	–
NS(=O)(=O)c1ccc(Oc2ccc(S(N)(=O)=O)cc2)cc1	–	inactive: -6.51% [at 46.1 µM]
CCOC(=O)c1ccccc1NC(=O)CSc1nc2ccccc2c(=O)n1CCCN1CCOCC1	inconclusive: 28.2 µM [inhibitor, partial curve, poor fit]	–
N#Cc1ccc(-c2ccc(OCC3CNC(=O)O3)cc2)cc1 (stereo not drawn)	–	inactive: 3.53%
CCOc1ccc(NC(=O)N2CCC(N3CCCCC3)CC2)cc1	inconclusive: 0.562 µM [activator, full curve, poor fit]	–
Cc1cc(NC(=O)C2CCCN(S(=O)(=O)c3cccc4nsnc34)C2)ccc1Br (stereo not drawn)	inconclusive: 0.562 µM [inhibitor, full curve, poor fit]	–
CC(C)(C)OC(=O)N1CCC(CNC(=O)c2ccc(F)cc2)CC1	–	inactive: 7.99% [at 46.1 µM]
Cn1cccc1C(=O)Nc1nc(-c2ccccn2)cs1	inconclusive: 29.1 µM [inhibitor, single point]	–
Cc1ccc(-c2nnc(SCC(=O)Nc3ccc(S(=O)(=O)N4CCCCCC4)cc3)o2)cc1	inconclusive: 10.3 µM [inhibitor, single point]	–
O=C(N/N=C/c1ccccc1)C(=O)N/N=C/c1ccccc1	inconclusive: 10 µM [activator, single point]	–
Cc1ccc(C(C)NC(=O)c2ccc3c(c2)OCCO3)cc1C (stereo not drawn)	inconclusive: 35.5 µM [inhibitor, partial curve, poor fit]	–

Part of the list above, reformatted:
CC1CCCCN1C(=O)Cn1cnc2cc([N+](=O)[O-])ccc2c1=O (stereo not drawn)
  Potency: inconclusive: 14.1 µM [activator, single point]
Cc1nc(N2CCC(C)CC2)c2c(C)c(C(=O)Nc3ccc(C(F)(F)F)cc3)sc2n1
  Potency: inconclusive: 15.8 µM [inhibitor, single point]
